The source of these data is publication PMC12594171, “DKK3-LRP1 complex and a chemical inhibitor regulate Aβ clearance in models of Alzheimer’s disease” (Science Advances, 2025).

These are yes or no findings as the source states them, for the method shown. In cells and extracts the contact can be indirect. A result given as binding can be weak or reduced; the word gives no strength.

The test concerns the target LRP1, endogenous in human brain (human (endogenous in AD brain)). Nature of the test: co-IP; human AD brain lysates, IP with antibodies to DKK1, DKK3 and LRP1, IgG as negative control, immunoblot. For orientation: A western blot detects proteins with antibodies after separation by electrophoresis.

B1: DKK1, endogenous in human brain (ligand, UniProt O94907 32-266)
chain: TLNSVLNSNAIKNLPPPLGGAAGHPGSAVSAAPGILYPGGNKYQTIDNYQPYPCAEDEECGTDEYCASPTRGGDAGVQICLACRKRRKRCMRHAMCCPGNYCKNGICVSSDQNHFRGEIEETITESFGNDHSTLDGYSRRTTLSSKMYHTKGQEGSVCLRSSDCASGLCCARHFWSKICKPVLKEGQVCTKHRRKGSHGLEIFQRCYCGEGLSCRIQKDHHQASNSSRLHTCQRH
Take B1: the binding result is listed as “binds”.
